“And” between values parts separate entries of the source, which are not always exact repeats. Identical values can stand only once.

Among the data in patent US8058394 (dated 2011) are step yield values, retold here.

The series can be described thus: general procedure: Fmoc solid-phase peptide synthesis; HMPB-PEGA resin (from amino-PEGA resin); trityl chloride resin; MSNT/N-methylimidazole (first residue); PyBOP/DIPEA (thioesterification). The following applies: late stage modification step.

Turning to AcNH-His-Ala-Ala-Phe-COSBn, the step yield by setting is: (run 1) 75% and 98%; (run 2) 10%.
